# Experimental data: PubChem BioAssay AID588781 (Weizmann Institute, 2011)
# Assay: 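Tyrosine kinases that adjust fibroblast polarity according to substrate rigidity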
# Cell system: human foreskin fibroblasts (HFF)
# Reagent: siRNA against human genes
# Treatment: cells plated on fibronectin-coated silicone of high versus low stiffness (range about 2 MPa to 5 kPa)
# Measured: 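Actin-stained fibroblasts on stiff (about 2 MPa) or soft (about 5 kPa) fibronectin-coated silicone were imaged; shape, stress fibres and edges scored, differences given as (stiff − soft)/stiff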
# Scale: stiff-soft elongation difference: higher = elongation depends more strongly on substrate stiffness; aspect ratio, stiff substrate: higher = more elongated cells on stiff substrate; aspect ratio, soft substrate: higher = more elongated cells on soft substrate; stiff-soft stress fibre difference: higher = stress fibre formation depends more on stiffness
# The whole screen tested 85 reagents; this is a random part of them. 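Knockdowns of interest may either weaken or strengthen the stiffness dependence of elongation, so both low and high differences matter.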 Further read-outs or replicates are left out here. The record does not give: the amount of reagent, the time to read-out.
gene symbol,stiff-soft elongation difference,"aspect ratio, stiff substrate","aspect ratio, soft substrate",stiff-soft stress fibre difference
BTK,0.22,2.3,1.8,0.54
YES1,0.26,1.9,1.4,0.9
TWF2,0.3,2.3,1.6,0.82
EPHB4,0.14,1.9,1.7,0.46
CSK,0.12,1.5,1.3,0.37
LTK,0.08,2.4,2.2,0.41
PTK7,0.21,2.1,1.7,0.78
EPHB2,0.2,1.7,1.4,0.78
EPHB1,0.25,2,1.5,0.73
EPHA8,0.27,2.2,1.6,0.7
ERBB3,0.12,2.3,2,0.22
ALK,0.28,1.8,1.3,0.97
JAK1,0.13,2.1,1.9,0.39
FGFR2,0.24,2.1,1.6,0.57
NTRK3,0.39,2.3,1.4,0.91
EPHB6,0.22,1.8,1.4,0.92
PDGFRB,0.32,2.2,1.5,0.85
EPHB3,0.25,2,1.5,0.84
ERBB2,0.16,1.9,1.6,0.68
FGFR3,0.19,1.6,1.3,0.91
MATK,0.29,2.4,1.7,0.89
FGR,0.32,2.2,1.5,0.79
LMTK2,0.22,2.3,1.8,0.54
ABL2,0.38,2.4,1.5,0.74
FER,0.11,1.5,1.3,0.7
JAK2,0.2,2,1.6,0.52
EPHA1,0.29,1.8,1.3,0.76
TWF1,0.1,2,1.8,0.36
STYK1,0.29,2.1,1.5,0.67
FYN,0.19,2.1,1.7,0.66
TEC,0.36,2.8,1.8,0.59
MST1R,0.35,2.3,1.5,0.79
PTK2B,0.42,2.6,1.5,0.84
TP53RK,0.19,2,1.6,0.83
INSR,0.33,2.1,1.4,0.74
EPHA3,0.24,2.2,1.7,0.51
TNK2,0.28,1.8,1.3,0.86
ITK,0.24,2.1,1.6,0.43
BMX,0.28,2,1.4,0.89
TEK,0.28,2.2,1.6,0.58
PTK2,0.3,2,1.4,0.68
TXK,0.22,2.3,1.8,0.74
AXL,-0.05,2,2.1,0.36
NTRK2,0.39,2.3,1.4,0.75
FGFR1,0.19,1.7,1.4,0.58
ABL1,0.28,2,1.5,0.49
RYK,0.36,2.5,1.6,0.54
FLT3,0.09,1.7,1.5,0.48
ERBB4,0.07,1.5,1.4,0.39
EPHA2,0.2,2,1.6,0.39

Sorted by “stiff-soft stress fibre difference” (ascending): some entries from above.
gene symbol,stiff-soft elongation difference,"aspect ratio, stiff substrate","aspect ratio, soft substrate",stiff-soft stress fibre difference
ITK,0.24,2.1,1.6,0.43
TEK,0.28,2.2,1.6,0.58
TNK2,0.28,1.8,1.3,0.86
BMX,0.28,2,1.4,0.89
